Measured values taken from US7524811B2, “Anti-angiogenic peptides from the N-terminus of endostatin” (Children's Medical Center Corporation, priority 2003, dated 2009).

Tests used:
[1] = Zn binding capacity by flame atomic absorption after dialysis; details: for zinc ratio per molecule of peptide: from atomic absorption readings, peptide molecular weight taken as 3000; for final zinc concentration (atomic absorption reading): peptide 0.5 mg/ml in 20 mM Tris pH 8.0, excess Zn chloride 1 mM, dialyzed 72 hours
[2] = Sim et al. 1999; Ding et al. 1998; cited from earlier work

Molecule	zinc ratio per molecule of peptide [1]	final zinc concentration (atomic absorption reading) [1] [µg/mL]	atoms of zinc bound per molecule of endostatin [2]
ATAQDFQPVLHLVALNTPLSGGMRGIR [mP1-H1/3A]	0.1	1.05	–
HTHQDFQPVLHLVALNTPLSGGMRGIR [mP1]	0.9	9.63	–
wild type: wild type human endostatin of Sim et al. 1999 (protein, UniProt P39060 1572-1754, looked up, Endostatin) Endostatin: HSHRDFQPVLHLVALNSPLSGGMRGIRGADFQCFQQARAVGLAGTFRAFLSSRLQDLYSIVRRADRAAVPIVNLKDELLFPSWEALFSGSEGPLKPGARIFSFDGKDVLRHPTWPQKSVWHGSDPNGRRLTESYCETWRTEAPSATGQASSLLGGRLLGQSAASCHHAYIVLCIENSFMTASK	–	–	10 atoms of zinc per molecule
endostatin: endostatin employed for crystallization studies (Ding et al. 1998) (protein, UniProt P39060 1572-1754, looked up, Endostatin) Endostatin: HSHRDFQPVLHLVALNSPLSGGMRGIRGADFQCFQQARAVGLAGTFRAFLSSRLQDLYSIVRRADRAAVPIVNLKDELLFPSWEALFSGSEGPLKPGARIFSFDGKDVLRHPTWPQKSVWHGSDPNGRRLTESYCETWRTEAPSATGQASSLLGGRLLGQSAASCHHAYIVLCIENSFMTASK	–	–	1 atoms of zinc per molecule
